Some of the results follow.
Legend:
Experiment in all cases: log2 fold change, soluble protein after heating vs DMSO (PISA); higher = thermal stabilisation; K562 lysate, 10 uM; active = over 0.2 and 3.5 SD of the protein, either way, in both replicates (recomputed)
erlotinib = compound: C#Cc1cccc(Nc2ncnc3cc(OCCOC)c(OCCOC)cc23)c1 [erlotinib]
Outline: (§1)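 To prepare the extract, K562 pellets were dounce-homogenised in PBS pH 7.4 with 1 mM MgCl2, giving crude material at 1 mg/mL protein. This was treated with 10 μM compound for 30 min, then heated in aliquots for 3 min over 48°C-58°C before pooling and addition of NP-40 to 0.5% at 4°C. Centrifugation at 21,000xg for 90 min left soluble protein in the supernatant, which TMTpro 16plex LC-MS/MS quantified with equalised channel sums. Results are log-two fold changes in thermal stability compared with solvent controls, from duplicates.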

Chains of the proteins cited; added tags and fusions are not shown. Lines headed by an entry give the natural chain unless they say otherwise; changes in a name come on top.
UniProt Q9BSD7: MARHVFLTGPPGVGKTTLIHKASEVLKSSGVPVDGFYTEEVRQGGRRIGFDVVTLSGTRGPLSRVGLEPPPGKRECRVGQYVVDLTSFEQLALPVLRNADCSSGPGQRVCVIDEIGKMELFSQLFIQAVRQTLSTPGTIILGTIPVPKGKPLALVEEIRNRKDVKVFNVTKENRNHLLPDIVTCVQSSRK
UniProt P30419: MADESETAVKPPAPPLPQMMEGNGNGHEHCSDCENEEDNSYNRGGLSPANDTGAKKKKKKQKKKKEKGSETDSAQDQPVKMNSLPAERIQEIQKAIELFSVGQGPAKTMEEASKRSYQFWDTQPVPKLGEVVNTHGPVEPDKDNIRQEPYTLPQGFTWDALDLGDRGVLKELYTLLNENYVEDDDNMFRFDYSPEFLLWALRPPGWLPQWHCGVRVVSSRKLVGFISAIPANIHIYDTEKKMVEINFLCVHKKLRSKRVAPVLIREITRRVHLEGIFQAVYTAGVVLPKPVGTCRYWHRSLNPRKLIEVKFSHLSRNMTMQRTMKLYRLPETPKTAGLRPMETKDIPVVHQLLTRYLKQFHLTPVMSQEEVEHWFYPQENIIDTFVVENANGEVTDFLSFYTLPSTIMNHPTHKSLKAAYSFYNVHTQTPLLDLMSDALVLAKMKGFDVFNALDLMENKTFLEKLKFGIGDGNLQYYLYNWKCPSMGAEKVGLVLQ
UniProt O75052: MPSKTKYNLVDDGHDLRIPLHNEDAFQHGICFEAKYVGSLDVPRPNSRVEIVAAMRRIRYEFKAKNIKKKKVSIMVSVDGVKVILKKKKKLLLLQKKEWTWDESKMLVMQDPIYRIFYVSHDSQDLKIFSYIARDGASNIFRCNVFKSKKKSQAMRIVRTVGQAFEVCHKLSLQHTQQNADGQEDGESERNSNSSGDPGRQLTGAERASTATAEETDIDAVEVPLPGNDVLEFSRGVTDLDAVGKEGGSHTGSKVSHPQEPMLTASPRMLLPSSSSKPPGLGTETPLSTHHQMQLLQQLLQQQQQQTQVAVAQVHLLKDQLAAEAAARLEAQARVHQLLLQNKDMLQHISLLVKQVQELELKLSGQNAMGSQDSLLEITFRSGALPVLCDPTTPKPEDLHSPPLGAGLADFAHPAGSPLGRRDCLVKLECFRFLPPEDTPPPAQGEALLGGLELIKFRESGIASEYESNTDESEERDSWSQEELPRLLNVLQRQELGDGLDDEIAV
UniProt O60936: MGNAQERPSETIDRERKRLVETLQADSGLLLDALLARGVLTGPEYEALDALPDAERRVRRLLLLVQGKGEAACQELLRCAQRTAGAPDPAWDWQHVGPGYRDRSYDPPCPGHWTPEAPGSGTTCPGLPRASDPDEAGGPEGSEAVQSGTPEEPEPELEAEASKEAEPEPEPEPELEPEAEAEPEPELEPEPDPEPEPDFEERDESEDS
UniProt Q9BXD5: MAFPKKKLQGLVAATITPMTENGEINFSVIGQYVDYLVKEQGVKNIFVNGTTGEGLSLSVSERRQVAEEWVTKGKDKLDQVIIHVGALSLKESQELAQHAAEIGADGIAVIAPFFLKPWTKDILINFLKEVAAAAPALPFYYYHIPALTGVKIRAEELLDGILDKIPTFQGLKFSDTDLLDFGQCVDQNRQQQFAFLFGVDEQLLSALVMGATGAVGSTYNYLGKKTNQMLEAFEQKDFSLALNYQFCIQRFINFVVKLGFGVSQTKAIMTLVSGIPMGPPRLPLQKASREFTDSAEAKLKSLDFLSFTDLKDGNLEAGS
UniProt O60361, whole entry, looked up: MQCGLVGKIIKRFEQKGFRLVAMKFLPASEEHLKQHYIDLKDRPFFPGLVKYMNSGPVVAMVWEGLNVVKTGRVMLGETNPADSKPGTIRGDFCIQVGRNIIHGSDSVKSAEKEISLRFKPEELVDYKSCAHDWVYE
UniProt P22392, whole entry, looked up: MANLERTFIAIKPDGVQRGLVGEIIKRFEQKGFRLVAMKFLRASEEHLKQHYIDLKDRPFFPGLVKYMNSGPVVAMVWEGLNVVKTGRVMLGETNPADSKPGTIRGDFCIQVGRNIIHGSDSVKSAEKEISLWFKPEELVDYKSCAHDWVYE
UniProt P29474: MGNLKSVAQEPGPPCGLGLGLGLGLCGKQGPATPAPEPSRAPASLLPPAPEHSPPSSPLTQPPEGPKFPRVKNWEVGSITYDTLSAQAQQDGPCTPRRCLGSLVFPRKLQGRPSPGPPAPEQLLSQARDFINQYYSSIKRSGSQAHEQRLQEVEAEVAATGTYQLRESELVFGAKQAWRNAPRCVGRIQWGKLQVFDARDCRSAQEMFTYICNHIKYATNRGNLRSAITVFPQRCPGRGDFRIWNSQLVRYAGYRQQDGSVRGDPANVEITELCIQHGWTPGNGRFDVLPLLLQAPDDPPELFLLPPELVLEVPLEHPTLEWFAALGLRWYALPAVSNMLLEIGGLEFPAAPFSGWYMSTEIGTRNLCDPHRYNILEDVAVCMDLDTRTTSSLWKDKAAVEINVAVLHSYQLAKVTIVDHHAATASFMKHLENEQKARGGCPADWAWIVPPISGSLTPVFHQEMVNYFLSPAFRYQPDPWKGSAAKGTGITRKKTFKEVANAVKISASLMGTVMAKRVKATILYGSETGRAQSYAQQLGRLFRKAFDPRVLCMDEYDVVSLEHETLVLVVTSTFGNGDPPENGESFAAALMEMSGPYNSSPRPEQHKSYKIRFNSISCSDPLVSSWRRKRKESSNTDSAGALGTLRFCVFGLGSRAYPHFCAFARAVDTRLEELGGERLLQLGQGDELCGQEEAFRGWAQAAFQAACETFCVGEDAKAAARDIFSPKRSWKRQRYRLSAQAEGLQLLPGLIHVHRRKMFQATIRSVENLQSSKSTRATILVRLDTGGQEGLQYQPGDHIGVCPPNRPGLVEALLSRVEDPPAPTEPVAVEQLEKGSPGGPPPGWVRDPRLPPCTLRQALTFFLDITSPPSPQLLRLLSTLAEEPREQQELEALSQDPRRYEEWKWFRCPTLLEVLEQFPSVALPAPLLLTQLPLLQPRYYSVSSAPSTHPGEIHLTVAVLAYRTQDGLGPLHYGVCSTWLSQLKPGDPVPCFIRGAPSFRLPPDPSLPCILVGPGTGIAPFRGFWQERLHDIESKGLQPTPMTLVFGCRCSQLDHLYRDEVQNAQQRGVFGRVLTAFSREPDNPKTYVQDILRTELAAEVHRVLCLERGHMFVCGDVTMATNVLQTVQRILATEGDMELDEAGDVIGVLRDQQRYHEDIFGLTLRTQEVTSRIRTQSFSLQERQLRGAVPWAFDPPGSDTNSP
UniProt Q96P11: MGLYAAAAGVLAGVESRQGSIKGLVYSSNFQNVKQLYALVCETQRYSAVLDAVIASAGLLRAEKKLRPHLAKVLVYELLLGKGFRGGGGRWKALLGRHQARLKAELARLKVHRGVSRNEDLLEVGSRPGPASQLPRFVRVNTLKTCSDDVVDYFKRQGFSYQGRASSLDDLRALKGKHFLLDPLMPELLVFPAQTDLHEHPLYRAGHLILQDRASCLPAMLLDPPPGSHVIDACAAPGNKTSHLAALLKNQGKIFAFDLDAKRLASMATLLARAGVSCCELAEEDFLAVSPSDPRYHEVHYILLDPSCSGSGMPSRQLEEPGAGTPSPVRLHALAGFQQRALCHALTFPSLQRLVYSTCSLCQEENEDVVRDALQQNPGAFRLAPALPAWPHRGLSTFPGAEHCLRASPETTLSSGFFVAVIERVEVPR
UniProt Q14978: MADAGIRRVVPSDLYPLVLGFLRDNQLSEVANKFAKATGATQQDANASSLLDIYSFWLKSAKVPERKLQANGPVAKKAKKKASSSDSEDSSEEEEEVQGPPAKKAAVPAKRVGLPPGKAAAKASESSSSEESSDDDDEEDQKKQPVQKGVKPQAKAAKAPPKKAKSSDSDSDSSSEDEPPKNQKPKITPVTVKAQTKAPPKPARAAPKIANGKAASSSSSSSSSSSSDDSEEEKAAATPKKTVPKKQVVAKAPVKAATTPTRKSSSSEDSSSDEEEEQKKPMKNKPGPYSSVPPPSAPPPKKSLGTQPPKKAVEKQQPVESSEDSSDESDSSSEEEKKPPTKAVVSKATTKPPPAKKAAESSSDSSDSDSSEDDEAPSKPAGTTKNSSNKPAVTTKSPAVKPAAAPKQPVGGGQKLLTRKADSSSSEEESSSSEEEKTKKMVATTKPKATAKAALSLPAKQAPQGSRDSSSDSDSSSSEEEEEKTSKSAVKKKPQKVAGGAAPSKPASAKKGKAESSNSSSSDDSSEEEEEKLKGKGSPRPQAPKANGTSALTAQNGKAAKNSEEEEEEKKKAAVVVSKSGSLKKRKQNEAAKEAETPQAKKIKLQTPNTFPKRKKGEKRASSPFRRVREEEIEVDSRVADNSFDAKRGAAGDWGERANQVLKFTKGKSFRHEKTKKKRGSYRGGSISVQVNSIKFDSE
UniProt Q6ZVK8: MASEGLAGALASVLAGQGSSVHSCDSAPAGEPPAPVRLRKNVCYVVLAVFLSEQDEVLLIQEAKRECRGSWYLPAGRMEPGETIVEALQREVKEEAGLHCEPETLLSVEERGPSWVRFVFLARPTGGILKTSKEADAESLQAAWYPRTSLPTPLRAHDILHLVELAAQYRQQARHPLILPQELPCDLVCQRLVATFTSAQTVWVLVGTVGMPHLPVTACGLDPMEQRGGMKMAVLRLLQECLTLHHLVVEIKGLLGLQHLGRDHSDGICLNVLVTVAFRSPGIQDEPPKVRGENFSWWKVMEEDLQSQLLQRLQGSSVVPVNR
UniProt P0C024: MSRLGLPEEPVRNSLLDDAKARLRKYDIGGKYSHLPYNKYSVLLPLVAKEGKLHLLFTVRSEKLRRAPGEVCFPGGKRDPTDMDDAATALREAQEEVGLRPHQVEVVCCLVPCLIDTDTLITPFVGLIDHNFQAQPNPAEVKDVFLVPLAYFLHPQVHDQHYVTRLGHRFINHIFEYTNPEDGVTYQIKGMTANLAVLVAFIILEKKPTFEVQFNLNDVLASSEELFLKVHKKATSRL
UniProt Q92686, whole entry, looked up: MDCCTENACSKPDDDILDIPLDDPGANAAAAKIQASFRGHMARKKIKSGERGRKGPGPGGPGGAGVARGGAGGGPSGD
UniProt Q8WTW4: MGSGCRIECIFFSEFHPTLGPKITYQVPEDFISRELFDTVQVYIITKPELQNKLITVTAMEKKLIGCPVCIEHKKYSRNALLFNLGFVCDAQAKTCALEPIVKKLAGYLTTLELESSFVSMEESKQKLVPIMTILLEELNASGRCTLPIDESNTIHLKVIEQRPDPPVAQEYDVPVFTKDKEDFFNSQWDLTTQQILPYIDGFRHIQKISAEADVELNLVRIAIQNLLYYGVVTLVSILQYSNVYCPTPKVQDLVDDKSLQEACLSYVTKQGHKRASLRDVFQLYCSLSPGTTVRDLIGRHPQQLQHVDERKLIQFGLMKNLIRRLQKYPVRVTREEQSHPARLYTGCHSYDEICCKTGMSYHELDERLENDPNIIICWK
UniProt P55055, whole entry, looked up: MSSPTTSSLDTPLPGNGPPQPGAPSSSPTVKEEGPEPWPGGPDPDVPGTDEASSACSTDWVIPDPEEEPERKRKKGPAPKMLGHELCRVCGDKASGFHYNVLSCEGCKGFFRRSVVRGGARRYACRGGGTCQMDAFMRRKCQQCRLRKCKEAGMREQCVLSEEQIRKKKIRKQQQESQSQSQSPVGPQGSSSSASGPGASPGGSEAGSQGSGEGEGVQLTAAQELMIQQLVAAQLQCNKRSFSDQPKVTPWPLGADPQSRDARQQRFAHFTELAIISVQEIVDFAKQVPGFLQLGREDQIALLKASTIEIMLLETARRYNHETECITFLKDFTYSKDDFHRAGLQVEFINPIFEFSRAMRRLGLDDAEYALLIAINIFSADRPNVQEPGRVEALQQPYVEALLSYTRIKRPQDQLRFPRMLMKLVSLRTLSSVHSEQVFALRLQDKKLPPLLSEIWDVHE

[1] = compound: C/C(=N\NC(=O)C1=CC(=CC=C1)S(=O)(=O)N2CCOCC2)/C3=C(C=CC(=C3)Cl)O
Outline: as §1

[2] = compound: C1=CC(=CC=C1C2=NC3=C(N2)C=C(C=C3)C(=O)N)OC4=CC=C(C=C4)Cl
Outline: as §1

[3] = compound: C1=CC2=C(C=CC(=C2)/C=C\3/C(=O)NC(=NCC4=CC=CS4)S3)N=C1
Outline: as §1

[4] = compound: C1=CC2=NC=CN=C2C=C1/C=C/3\C(=O)NC(=O)S3
Outline: as §1

[5] = compound: C1=CC=C(C=C1)C2=NC(=C(N2)C3=CC=NC=C3)C4=CC(=C(C=C4)Cl)O
Outline: as §1

[6] = compound: C1=CC=C2C(=C1)C3=NNC4=CC=CC(=C43)C2=O
Outline: as §1

[7] = compound: C1CCN(C1)C(=O)NC2=CC=CC(=C2)NC3=NC=C(C(=N3)NCCC4=CN=CN4)Br
Outline: as §1

[8] = compound: C1CN(CCC1(CC2=CC=C(C=C2)Cl)N)C3=NC=NC4=C3C=CN4
Outline: as §1

IRAK-1-4 Inhibitor I = compound: C1COCCN1CCN2C3=CC=CC=C3N=C2NC(=O)C4=CC(=CC=C4)[N+](=O)[O-] [IRAK-1-4 Inhibitor I]
Outline: as §1

ibrutinib = compound: C=CC(=O)N1CCC[C@@H](n2nc(-c3ccc(Oc4ccccc4)cc3)c3c(N)ncnc32)C1 [ibrutinib]
Outline: as §1

[9] = compound: CC(=O)c1cnc2ccc(-c3cc(Cl)c(O)c(Cl)c3)nc2c1N[C@H]1CC[C@H](CN(C)C)CC1
Outline: as §1

ralimetinib = compound: CC(C)(C)Cn1c(N)nc2ccc(-c3[nH]c(C(C)(C)C)nc3-c3ccc(F)cc3)nc21 [ralimetinib]
Outline: as §1

[10] = compound: CC(C)(O)CC(=O)NCCn1ccc2ncnc(Nc3ccc(Oc4cccc(C(F)(F)F)c4)c(Cl)c3)c21
Outline: as §1

[11] = compound: CC(C)C1=C2N=C(C=C(N2N=C1)NCC3=CC=CC=C3)NCCCCCCN
Outline: as §1

[12] = compound: CC1=C(C(CC(=O)N1)C2=CC=C(C=C2)C(F)(F)F)C(=O)NC3=C(C=C4C(=C3)C=NN4)F
Outline: as §1

[13] = compound: CC1=C(C2=C(C=C1)C(=O)C3=CC=CC=C3N2CCCN)C
Outline: as §1

[14] = compound: CC1=C(C=C(C=C1)NC(=O)C2=CC(=CC=C2)C(C)(C)C#N)NC3=CC4=C(C=C3)N=CN(C4=O)C
Outline: as §1

[15] = compound: CC1=C(C=C(C=C1)NC(=O)C2=CC(=CC=C2)N(C)C)NC(=O)C3=CC=C(C=C3)O
Outline: as §1

[16] = compound: CC1=CC=C(C=C1)SC2=C3C=C(SC3=CN=C2)C(=O)N
Outline: as §1

Measured: log2 fold change

NTPCR (UniProt Q9BSD7)
inactive: erlotinib 0.015 | [1] -0.263 | [2] -0.007 | [3] 0.065 | [4] 0.031 | [5] 0.018 | [6] -0.045 | [7] 0.025 | [8] 0.046 | IRAK-1-4 Inhibitor I -0.011 | ibrutinib -0.004 | [9] 0.002 | ralimetinib 0.014 | [10] 0 | [11] 0.022 | [12] 0.018 | [13] 0.014 | [14] -0.002 | [15] 0.066 | [16] -0.001

NMT1 (UniProt P30419)
inactive: erlotinib -0.027 | [1] -0.147 | [2] 0.15 | [3] 0.019 | [4] -0.021 | [5] -0.024 | [6] 0.062 | [7] -0.012 | [8] -0.165 | IRAK-1-4 Inhibitor I -0.027 | ibrutinib -0.045 | [9] 0.005 | ralimetinib -0.001 | [10] 0.014 | [11] 0.022 | [12] -0.011 | [13] -0.009 | [14] -0.01 | [15] 0.017 | [16] 0.001

NOS1AP (UniProt O75052)
inactive: erlotinib -0.044 | [1] -0.258 | [2] -0.129 | [3] -0.052 | [4] -0.047 | [5] -0.071 | [6] -0.435 | [7] -0.025 | [8] -0.085 | IRAK-1-4 Inhibitor I 0.101 | ibrutinib -0.111 | [9] 0.07 | ralimetinib 0.14 | [10] -0.049 | [11] -0.099 | [12] -0.238 | [14] 0.089 | [15] 0.05 | [16] -0.1

NOL3 isoform 3 (UniProt O60936)
inactive: erlotinib 0.271 | [1] -0.117 | [2] 0.139 | [3] -0.112 | [5] 0.114 | [6] -0.101 | IRAK-1-4 Inhibitor I 0.026 | [9] 0.03 | ralimetinib -0.045 | [10] -0.037 | [11] 0.037 | [12] -0.334 | [13] -0.031 | [14] -0.158 | [15] -0.204 | [16] -0.151

NPL (UniProt Q9BXD5)
inactive: erlotinib -0.001 | [1] 0 | [2] -0.028 | [3] -0.068 | [4] 0.004 | [6] -0.166 | [7] 0.024 | [8] -0.059 | ibrutinib 0.034 | [9] -0.012 | [11] -0.004 | [12] 0.059 | [13] -0.053 | [16] 0.032

NME2P1 (UniProt O60361)
inactive: erlotinib 0.007 | [1] -0.112 | [2] -0.006 | [3] -0.127 | [4] -0.037 | [5] -0.036 | [6] -0.108 | IRAK-1-4 Inhibitor I 0.073 | ibrutinib 0.009 | [9] -0.007 | ralimetinib -0.019 | [10] -0.199 | [11] 0.037 | [12] 0.004 | [13] -0.038 | [14] -0.031 | [15] 0.154 | [16] -0.112

NME2 isoform 2 (UniProt P22392)
inactive: erlotinib -0.016 | [1] 0.01 | [2] 0.027 | [3] -0.009 | [4] -0.005 | [5] 0.004 | [6] 0.034 | [7] 0.004 | [8] -0.011 | IRAK-1-4 Inhibitor I 0.019 | ibrutinib 0.012 | [9] -0.005 | ralimetinib 0.001 | [10] -0.014 | [11] 0.015 | [12] -0.016 | [13] -0.002 | [14] 0.018 | [15] 0.005 | [16] -0.011

NOS3 (UniProt P29474)
inactive: erlotinib 0.009 | [1] -0.048 | [2] -0.023 | [3] -0.156 | [6] 0.034 | [11] -0.023 | [12] 0.075

NSUN5 isoform 2 (UniProt Q96P11)
inactive: erlotinib -0.007 | [1] -0.016 | [2] -0.074 | [3] 0.07 | [4] 0.004 | [5] -0.006 | [6] -0.041 | [7] 0.009 | [8] 0.024 | IRAK-1-4 Inhibitor I -0.047 | ibrutinib 0.011 | [9] 0.04 | ralimetinib 0.036 | [10] -0.019 | [11] -0.009 | [12] 0.014 | [13] 0.03 | [14] -0.023 | [15] 0.027 | [16] -0.005

NOLC1 isoform 3 (UniProt Q14978)
inactive: erlotinib -0.113 | [2] 0.088 | [4] 0.179 | [5] -0.069 | [7] 0.013 | [8] 0.066 | IRAK-1-4 Inhibitor I 0.037 | ibrutinib 0.226 | [9] -0.009 | ralimetinib -0.065 | [10] -0.04 | [11] -0.018 | [13] 0 | [14] -0.047 | [15] 0.01 | [16] -0.03

2 neighbouring records out of the list so far, quoted:
NPL (UniProt Q9BXD5)
inactive: erlotinib -0.001 | [1] 0 | [2] -0.028 | [3] -0.068 | [4] 0.004 | [6] -0.166 | [7] 0.024 | [8] -0.059 | ibrutinib 0.034 | [9] -0.012 | [11] -0.004 | [12] 0.059 | [13] -0.053 | [16] 0.032

NME2P1 (UniProt O60361)
inactive: erlotinib 0.007 | [1] -0.112 | [2] -0.006 | [3] -0.127 | [4] -0.037 | [5] -0.036 | [6] -0.108 | IRAK-1-4 Inhibitor I 0.073 | ibrutinib 0.009 | [9] -0.007 | ralimetinib -0.019 | [10] -0.199 | [11] 0.037 | [12] 0.004 | [13] -0.038 | [14] -0.031 | [15] 0.154 | [16] -0.112

Further records.

NUDT18 (UniProt Q6ZVK8)
inactive: erlotinib -0.042 | [1] 0.135 | [2] 0.003 | [3] 0.039 | [5] 0 | [6] -0.109 | [7] 0.143 | [8] -0.074 | IRAK-1-4 Inhibitor I 0.392 | ralimetinib 0.133 | [10] -0.2 | [11] -0.25 | [14] 0.007 | [15] -0.239

NUDT7 (UniProt P0C024)
inactive: erlotinib 0.036 | [1] -0.048 | [2] 0 | [3] 0.025 | [4] -0.009 | [5] 0.036 | [6] 0.017 | [7] 0.014 | [8] -0.012 | IRAK-1-4 Inhibitor I -0.058 | ibrutinib -0.037 | [9] 0.158 | ralimetinib -0.083 | [10] -0.204 | [11] 0.051 | [13] 0.002 | [14] 0.046 | [15] -0.106 | [16] 0.12

NRGN (UniProt Q92686)
inactive: [4] 0.08 | ibrutinib 0.011 | [12] 0.125 | [13] 0.037 | [14] 0.022

NPRL2 (UniProt Q8WTW4)
inactive: [12] -0.076 | [14] 0.039

NR1H2 (UniProt P55055)
inactive: [5] -0.1 | IRAK-1-4 Inhibitor I -0.077 | ralimetinib 0.085 | [10] 0.041 | [15] -0.069
